Measurements reported in PubChem BioAssay AID1259308 (NCATS, 2017)
Here is a random part of about 59,000 reagents. Of all reagents, about 1,510 (2.6%) got an active call. 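Calls use total luciferase alone and ignore viability, so some active siRNAs may act by altering cell number.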 Entries without a mark were called inactive. Not all columns of the deposit are shown. No sequences are given here.

Purpose: 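Genes whose loss raises luciferase production in HEK293 cells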 (primary screen)
System: human HEK293 embryonic kidney cells stably expressing firefly luciferase (HEK-CMV-Luc2-Hygro)
Reagent: single siRNA against human genes, 0.8 pmol siRNA per well
Time to read-out: 72 h
Measurement: 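Luciferase light (ONE-Glo) measured on one replicate plate set and viability (CellTiter-Glo) on the other, scaled to a negative control siRNA, with robust z-scores and luciferase per cell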
Reading the numbers: total luciferase, z-score: higher = more reporter protein produced
Hit rule: 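An siRNA counts as active if its total luciferase robust z-score exceeds 3; genes with two or more such siRNAs out of three were retested with fresh siRNAs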
Meaning of the calls: active = raised luciferase; inactive = no rise

total luciferase, z-score, by gene and reagent
ZNF611 (GeneID 81856): SID160751034 0.855; SID160751035 -0.492; SID160751036 -1.12
ESAM (GeneID 90952): SID160753850 -2.26; SID160753851 -0.204; SID160753852 0.448
ATP2C2 (GeneID 9914): SID160723426 0.709; SID160723427 -0.422; SID160723428 1.03
ADAT1 (GeneID 23536): SID160730860 -1.13; SID160736502 2.47; SID160736503 -0.547
CBLIF (GeneID 2694): SID160770853 0.335; SID160770861 0.0584; SID160770872 -0.039
NIP7 (GeneID 51388): SID160740739 -1.66; SID160740740 2.56; SID160740741 -1.77
RGS8 (GeneID 85397): SID160753236 3.47 (active); SID160753237 2.13; SID160753238 1.45
DEPDC7 (GeneID 91614): SID160754035 -0.928; SID160754036 0.103; SID160754037 -0.586

2 of these entries, set out differently:
gene,PubChem SID,"total luciferase, z-score"
NIP7 (GeneID 51388),SID160740741,-1.77
RGS8 (GeneID 85397),SID160753236,3.47 (active)
